# Data taken from article PMC8716806.
# Results are given in words; binding and its absence hold for the method and conditions named. Binding can be weak; no strength is given.
# B1: SopB, plasmid partitioning protein of F-plasmid (DNA-binding partner) (protein, UniProt P62558 1-323)
# chain: MKRAPVIPKHTLNTQPVEDTSLSTPAAPMVDSLIARVGVMARGNAITLPVCGRDVKFTLEVLRGDSVEKTSRVWSGNERDQELLTEDALDDLIPSFLLTGQQTPAFGRRVSGVIEIADGSRRRKAAALTESDYRVLVGELDDEQMAALSRLGNDYRPTSAYERGQRYASRLQNEFAGNISALADAENISRKIITRCINTAKLPKSVVALFSHPGELSARSGDALQKAFTDKEELLKQQASNLHEQKKAGVIFEAEEVITLLTSVLKTSSASRTSLSSRHQFAPGATVLYKGDKMVLNLDRSRVPTECIEKIEAILKELEKPAP
# Target: TraC of the gonococcal type IV secretion system (cytoplasmic ATPase, VirB4 homologue) (Neisseria gonorrhoeae)
# Assay: two-hybrid; bacterial two-hybrid (BACTH): T18 and T25 fragments of B. pertussis adenylate cyclase fused to the N- or C-terminus; plasmids co-transformed into E. coli BTH101; LB agar with 0.5 mM IPTG and 40 ug/ml X-gal, 40-48 h at 30 C, blue colony colour; beta-galactosidase assay (Miller) of overnight cultures at 30 C for some pairs
binder,measurement,value
B1,binding,binds
